PubChem BioAssay AID602196, INSERM | 2012

- Screen: 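Knock-downs that protect lung cancer cells from cisplatin or sensitise them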
- Cells: human A549 lung cancer cells
- Knock-down reagent: siRNA pair against human genes
- Timing: 48 h transfection before cisplatin; time from cisplatin to read-out not stated
- Conditions: cisplatin at a dose killing half of control-siRNA cells; exact dose and duration not given
- Measurement: 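Cisplatin cell death as a shift from the 50% death seen with control siRNA; siRNAs toxic or growth-blocking alone scored 0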
- Reading the numbers: two-siRNA summed score (-2 to +2): higher = both siRNAs protect from cisplatin killing; -2 means both sensitise; mean protection from cisplatin (shift in death) and protection from cisplatin (shift in death), siRNA C and protection from cisplatin (shift in death), siRNA D: higher = protection from cisplatin killing
- Active means: 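siRNAs harmful alone (LDH or WST-1) get 0; others get +1 for less and -1 for more cisplatin killing; genes are active when the two siRNAs give the same sign, summing to ±2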
- Calls: active = both siRNAs shift cisplatin killing the same way; inactive = no consistent shift, or siRNA harmful alone
The whole screen tested about 23,000 reagents; this is a part drawn at random. 455 of them (2%) were called active. 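Active includes both protection and sensitisation; some change values fall well beyond the stated -50 to +50 range.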 Reagent sequences are not shown. Not given: the amount of reagent.

target,two-siRNA summed score (-2 to +2),mean protection from cisplatin (shift in death) (%),"protection from cisplatin (shift in death), siRNA C (%)","protection from cisplatin (shift in death), siRNA D (%)",outcome
LOC391360,0,-3.7,1.6,-9,inactive
ZNF558,0,1.9,6.9,-3,inactive
LOC440901,0,3.1,3.9,2.2,inactive
ANKRD55,0,3.6,-3.5,10.8,inactive
GUCY1B1,0,2.5,-0.1,5,inactive
MGC4368,0,-1.2,-6,3.7,inactive
KRT28,-1,2.2,-17.7,22,inactive
POLR2L,-1,-15.1,-5.8,-24.4,inactive
LINC01299,0,11.3,12.7,9.9,inactive
OBP2A,0,-0.5,-6.2,5.2,inactive
EXOSC4,0,-0.9,-0.2,-1.7,inactive
LOC442339,0,10,9.3,10.7,inactive
GPR183,1,9.8,1.7,18,inactive
AP5S1,0,8.5,5.4,11.7,inactive
PTPRZ1,0,7.9,5.9,10,inactive
SOX13,0,5,1.1,8.9,inactive
LOC401252,1,15.7,18.4,13,inactive
SGK3,1,18.7,-0.3,37.6,inactive
MGC40069 (retired record),1,10.9,18.3,3.5,inactive
LOC388716,0,26.4,34.3,18.6,inactive
FGF20,0,-1.2,-3.7,1.2,inactive
CDK2AP2,0,7.1,4.6,9.6,inactive
ZNF41,0,5.2,1.2,9.1,inactive
LOC341371,1,16,19.8,12.2,inactive
NLK,1,11.6,11.5,11.7,inactive
LOC283780,0,14.1,18.7,9.6,inactive

Next part (4 carried over from the part before).
target,two-siRNA summed score (-2 to +2),mean protection from cisplatin (shift in death) (%),"protection from cisplatin (shift in death), siRNA C (%)","protection from cisplatin (shift in death), siRNA D (%)",outcome
ZNF41,0,5.2,1.2,9.1,inactive
LOC341371,1,16,19.8,12.2,inactive
NLK,1,11.6,11.5,11.7,inactive
LOC283780,0,14.1,18.7,9.6,inactive
TAGLN,0,-0.1,1.6,-1.8,inactive
LOC441787,1,7.6,10.9,4.3,inactive
TBL3,0,-1,-11.7,9.6,inactive
ZNF121,0,2,-4.2,8.3,inactive
ST8SIA3,0,2,2.2,1.9,inactive
KLHL22,0,5.1,-2,12.2,inactive
TEDAR,0,-7.8,-2.1,-13.5,inactive
F2R,1,10,7.5,12.4,inactive
HDX,0,-9.1,-8.1,-10,inactive
RAB41,1,9.6,26.5,-7.3,inactive
ZNF444,0,3.8,-10.3,18,inactive
LOC441650,0,-1.7,-9.3,5.8,inactive
OR1F1,-1,-2.1,11.7,-15.9,inactive
VPS37B,0,-2.8,-15.3,9.7,inactive
LOC388340,0,-9,-17.5,-0.6,inactive
TRIM37,1,-1.8,-23.2,19.5,inactive
PTGDR,0,3.5,3.8,3.3,inactive
PRKAR1A,0,7.4,5.9,8.9,inactive
LOC389636,0,-3.5,-10.8,3.7,inactive
TP53TG1,2,17.1,18.2,16,active
PCSK5,-1,-4.6,0.7,-10,inactive
TUSC3,1,17.8,16.5,19.1,inactive
CNTRL,-1,-19.6,3.8,-43,inactive
CRP,-1,-14.1,-10.5,-17.6,inactive
ADPRS,0,-2.8,-12.2,6.5,inactive
C1orf116,0,-2.6,3.3,-8.4,inactive
ZNF438,0,7.3,6,8.7,inactive
NIPSNAP2,0,8.4,13.7,3.1,inactive
RAB35,0,-2,-23.3,19.4,inactive
SPCS2,1,11,-0.7,22.7,inactive
LOC441334,0,5.9,7.9,3.9,inactive
